This passage reports binding results from paper PMC6232869.

Amino acid sequences for entries named in this document (tags omitted). Residues count along the entry.
UniProt P20029, residues 20-655: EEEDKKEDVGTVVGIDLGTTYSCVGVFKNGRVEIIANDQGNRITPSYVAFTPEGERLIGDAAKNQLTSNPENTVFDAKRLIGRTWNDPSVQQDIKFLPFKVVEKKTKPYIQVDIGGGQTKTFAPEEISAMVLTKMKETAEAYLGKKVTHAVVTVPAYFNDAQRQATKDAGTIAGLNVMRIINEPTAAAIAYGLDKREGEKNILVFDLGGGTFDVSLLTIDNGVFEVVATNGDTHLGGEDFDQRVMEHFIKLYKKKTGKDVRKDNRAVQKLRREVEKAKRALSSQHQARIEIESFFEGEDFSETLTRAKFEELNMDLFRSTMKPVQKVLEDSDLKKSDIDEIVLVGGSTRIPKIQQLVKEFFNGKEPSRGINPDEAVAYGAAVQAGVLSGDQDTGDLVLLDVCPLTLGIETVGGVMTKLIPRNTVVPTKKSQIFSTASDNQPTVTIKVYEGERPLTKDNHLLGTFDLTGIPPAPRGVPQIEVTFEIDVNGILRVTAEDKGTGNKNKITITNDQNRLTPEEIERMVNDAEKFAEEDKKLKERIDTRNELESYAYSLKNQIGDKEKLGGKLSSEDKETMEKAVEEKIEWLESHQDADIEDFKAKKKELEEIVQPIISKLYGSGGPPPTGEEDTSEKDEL

This assay deals with 78 kDa glucose regulated protein (GRP78) (mouse (endogenous in cultured spinal cord astrocytes)) (UniProt P20029). The assay is described as follows: DARTS (drug affinity responsive target stability); astrocyte cell lysate (10 ug protein) incubated with 0.1, 1 or 10 ug/ml recombinant NLK or vehicle for 30 min at room temperature; then thermolysin (1:10) in 50 mM Tris-HCl pH 8.0, 50 mM NaCl, 10 mM CaCl2 for 30 min at 37 C; SDS-PAGE with silver stain, band identified by nano LC-MS/MS, western blot for GRP78; only the binder purified. (A western blot detects proteins with antibodies after separation by electrophoresis.)

Results are given in words; binding and its absence hold for the method and conditions named. Some results given as binding are weak or reduced against the parent protein; the word gives no strength.

For “recombinant neuroleukin (NLK) (from UniProt P06744 1-558) (ligand)”, the binding result is “binds”.
